Tested on: eIF2-GTP-Met-tRNAi ternary complex
Assay: Ternary complex assay (dual luciferase, firefly/renilla ratio) in stable KLN-tTA/pBISA-DL(ATF-4) cells; HTS and hit confirmation
Assay type: cell-based, mouse
Set-up: unit not given here
Conditions: confirmed hits of the screen (Table 5)
From the text: For assay development, a bi-directional plasmid was designed in which a common promoter/enhancer complex drives the transcription of firefly luciferase (F-luc) ORF fused to the 5′ untranslated region (UTR) of ATF-4, and of the renilla luciferase (R-luc) ORF fused to a 90-nucleotide 5′ UTR derived from the plasmid (FIG. 6A). Because the tetracycline-regulated transactivator ((tTA), required for driving transcription from this vector) is not normally expressed in the mammalian cells, stable KLN cancer cells were constructed that expressed tTA (KLN-tTA).
The KLN-tTA colonies that drove expression of reporter genes from pBISA-DL plasmid were selected by transient transfection and dual luciferase assay. […]
Screening was conducted in 384 well white opaque plates (Nalge Nunc), 100 μl volume RPMI+10% fetal bovine serum. […] Firefly luciferase reporter activity was then read by the addition of thirty microliters of Dual Glo Luciferase reagent (Promega), followed by one hour incubation at room temperature to allow for adequate signal buildup. Luminescence counting was conducted on a Microbeta Trilux using a 1 second read time. Renilla luciferase reporter activity was measured following addition of 30 μl Stop and Glo Luciferase reagent (Promega) and incubation identical to the one carried out for the firefly luciferase one. […]

O=C(/C=C/c1ccccc1)Nc1ccccc1Cl [Compound 191390]
Activity 5 uM (compound at 5 uM): 3.71
Activity 10 uM (compound at 10 uM): 4.295

— US9932300B2, “N,N′-diarylurea compounds and N,N′-diarylthiourea compounds as inhibitors of translation initiation” (President and Fellows of Harvard College, priority 2009, dated 2018)
